Measured values: publication PMC6527704
Results are given in words; binding and its absence hold for the method and conditions named. In cells and extracts the contact can be indirect. Some binding calls cover weakened binding; strength is not graded here.

The chains behind the UniProt entries cited, without tags or fusion partners.
UniProt Q13547: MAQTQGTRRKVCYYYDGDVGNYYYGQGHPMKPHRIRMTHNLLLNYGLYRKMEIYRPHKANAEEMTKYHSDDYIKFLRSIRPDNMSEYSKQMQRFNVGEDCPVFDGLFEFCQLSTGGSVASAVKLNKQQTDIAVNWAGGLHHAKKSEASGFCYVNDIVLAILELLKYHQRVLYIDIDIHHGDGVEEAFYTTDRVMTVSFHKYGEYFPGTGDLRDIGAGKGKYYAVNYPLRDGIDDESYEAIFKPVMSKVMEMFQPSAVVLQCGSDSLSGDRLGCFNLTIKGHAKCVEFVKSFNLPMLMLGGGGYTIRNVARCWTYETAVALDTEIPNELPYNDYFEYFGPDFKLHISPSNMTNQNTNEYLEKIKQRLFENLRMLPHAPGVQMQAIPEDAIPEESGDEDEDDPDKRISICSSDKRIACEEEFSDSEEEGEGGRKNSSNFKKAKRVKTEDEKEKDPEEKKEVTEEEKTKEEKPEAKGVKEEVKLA

Columns and labels:
[1] = target: histone deacetylase 1 (human (endogenous in primary lung fibroblasts)) (UniProt Q13547); assay: co-IP; HDAC1-specific antibodies precipitate endogenous HDAC1 from nuclear protein extracts of Ctrl primary human lung fibroblasts; IgG as negative control; western blot
[2] = target: T1, exosome-associated protein C1D (human (endogenous in primary lung fibroblasts)) (UniProt Q13901); assay: co-IP; C1D-specific antibodies precipitate endogenous C1D from nuclear protein extracts of IPF primary human lung fibroblasts treated with the EP300 inhibitor CBP30 (EP300inh); western blot
T1 sequence: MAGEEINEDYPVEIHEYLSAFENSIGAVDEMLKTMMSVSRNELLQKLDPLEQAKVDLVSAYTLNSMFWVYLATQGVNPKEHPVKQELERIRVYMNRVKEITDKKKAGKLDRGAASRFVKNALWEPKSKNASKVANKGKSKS

[3] = target: T1, exosome-associated protein C1D (human (endogenous in primary lung fibroblasts)); assay: co-IP; C1D-specific antibodies precipitate endogenous C1D from nuclear protein extracts of IPF primary human lung fibroblasts transfected with a dominant-negative EP300 (dnEP300, D1399Y) expression construct; western blot
[4] = target: T1, exosome-associated protein C1D (human (endogenous in primary lung fibroblasts)); assay: co-sedimentation; 5-40% sucrose gradient ultracentrifugation (16 h 30 min, 132,000 x g) of nuclear extracts from Ctrl primary human lung fibroblasts in native nuclear lysis buffer (100 mM NaCl, 50 mM Tris-HCl pH 7.0); ten fractions analysed by western blot; the complex was also reconstituted in IPF fibroblasts transfected with MIRLET7D

| Binder | binding [1] | binding [2] | binding [3] | binding [4] |
| --- | --- | --- | --- | --- |
| nuclear-specific exosome subunit EXOSC10 (protein, UniProt Q01780 1-885) MAPPSTREPRVLSATSATKSDGEMVLPGFPDADSFVKFALGSVVAVTKASGGLPQFGDEYDFYRSFPGFQAFCETQGDRLLQCMSRVMQYHGCRSNIKDRSKVTELEDKFDLLVDANDVILERVGILLDEASGVNKNQQPVLPAGLQVPKTVVSSWNRKAAEYGKKAKSETFRLLHAKNIIRPQLKFREKIDNSNTPFLPKIFIKPNAQKPLPQALSKERRERPQDRPEDLDVPPALADFIHQQRTQQVEQDMFAHPYQYELNHFTPADAVLQKPQPQLYRPIEETPCHFISSLDELVELNEKLLNCQEFAVDLEHHSYRSFLGLTCLMQISTRTEDFIIDTLELRSDMYILNESLTDPAIVKVFHGADSDIEWLQKDFGLYVVNMFDTHQAARLLNLGRHSLDHLLKLYCNVDSNKQYQLADWRIRPLPEEMLSYARDDTHYLLYIYDKMRLEMWERGNGQPVQLQVVWQRSRDICLKKFIKPIFTDESYLELYRKQKKHLNTQQLTAFQLLFAWRDKTARREDESYGYVLPNHMMLKIAEELPKEPQGIIACCNPVPPLVRQQINEMHLLIQQAREMPLLKSEVAAGVKKSGPLPSAERLENVLFGPHDCSHAPPDGYPIIPTSGSVPVQKQASLFPDEKEDNLLGTTCLIATAVITLFNEPSAEDSKKGPLTVAQKKAQNIMESFENPFRMFLPSLGHRAPVSQAAKFDPSTKIYEISNRWKLAQVQVQKDSKEAVKKKAAEQTAAREQAKEACKAAAEQAISVRQQVVLENAAKKRERATSDPRTTEQKQEKKRLKISKKPKDPEPPEKEFTPYDYSQSDFKAFAGNSKSKVSSQFDPNKQTPSGKKCIAAKKIKQSVGNKSMSFPTGKSDRGFRYNWPQR | binds | binds | binds | binds |
| exosome-associated protein C1D (protein, UniProt Q13901 1-141) MAGEEINEDYPVEIHEYLSAFENSIGAVDEMLKTMMSVSRNELLQKLDPLEQAKVDLVSAYTLNSMFWVYLATQGVNPKEHPVKQELERIRVYMNRVKEITDKKKAGKLDRGAASRFVKNALWEPKSKNASKVANKGKSKS | binds |  |  |  |
